{"sequences": {"note": "Amino acid sequences for entries named in this document (tags omitted).", "UniProt P37238": "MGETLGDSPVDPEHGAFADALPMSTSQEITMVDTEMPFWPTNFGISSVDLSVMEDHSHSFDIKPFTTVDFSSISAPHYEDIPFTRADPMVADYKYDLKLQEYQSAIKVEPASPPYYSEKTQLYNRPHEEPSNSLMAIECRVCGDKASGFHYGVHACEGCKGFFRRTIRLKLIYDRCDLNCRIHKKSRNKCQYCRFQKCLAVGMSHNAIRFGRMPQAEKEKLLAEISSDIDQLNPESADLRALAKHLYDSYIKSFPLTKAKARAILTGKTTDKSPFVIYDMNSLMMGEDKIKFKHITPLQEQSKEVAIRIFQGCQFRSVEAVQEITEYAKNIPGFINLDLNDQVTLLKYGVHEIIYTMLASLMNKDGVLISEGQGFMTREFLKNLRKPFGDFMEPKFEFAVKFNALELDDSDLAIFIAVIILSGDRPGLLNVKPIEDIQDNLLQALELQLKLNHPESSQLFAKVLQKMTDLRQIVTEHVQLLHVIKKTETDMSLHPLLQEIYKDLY"}, "source": "paper PMC4069188", "biological_target": "mitogen-activated protein kinase kinase 1 (MEK1), endogenous in 3T3-L1 adipocytes (mouse (endogenous in 3T3-L1)) (UniProt P31938)", "test": "co-IP; co-immunoprecipitation of endogenous MEK1 and PPARγ from the nuclear extract of 3T3-L1 adipocytes, control or treated with atRA (100 nM, 48 h) in DM containing CoA", "note": "No constants are given. Whether binding was seen depends on the method and setting. Binding seen in cells or lysates may run through a third protein. Some results given as binding are weak or reduced against the parent protein; the word gives no strength."}
{"substance": "peroxisome proliferator-activated receptor gamma (PPARγ), endogenous in 3T3-L1 adipocytes (from UniProt P37238 1-505)", "values": [{"measurement": "binding", "result": "binds"}]}
